This is a selection; strong and weak results do not stand in their true shares. For some of these results: At the low end of the ranking the order means little. The list shows a part of the results. For some of these results: Construct or isoform of the protein are uncertain.

Protein sequences, listed by entry. Tags and fused reporters are not part of them. Lines headed by an entry give the natural chain unless they say otherwise; changes in a name come on top.
UniProt P50549: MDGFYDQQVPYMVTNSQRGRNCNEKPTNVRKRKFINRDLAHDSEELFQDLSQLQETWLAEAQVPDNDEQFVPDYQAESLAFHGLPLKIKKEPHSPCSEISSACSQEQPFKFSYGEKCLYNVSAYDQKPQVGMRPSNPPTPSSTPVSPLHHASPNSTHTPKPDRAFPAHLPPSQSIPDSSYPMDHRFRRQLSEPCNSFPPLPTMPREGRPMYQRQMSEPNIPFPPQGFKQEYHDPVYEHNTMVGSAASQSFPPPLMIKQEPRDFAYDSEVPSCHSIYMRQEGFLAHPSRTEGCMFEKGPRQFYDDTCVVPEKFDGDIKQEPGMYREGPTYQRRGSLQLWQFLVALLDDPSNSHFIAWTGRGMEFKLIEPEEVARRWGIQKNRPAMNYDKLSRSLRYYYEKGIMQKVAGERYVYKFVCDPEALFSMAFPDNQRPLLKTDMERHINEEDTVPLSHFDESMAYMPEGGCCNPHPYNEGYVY

The target of one assay is T1, ETV4 (UniProt P43268).
T1 sequence: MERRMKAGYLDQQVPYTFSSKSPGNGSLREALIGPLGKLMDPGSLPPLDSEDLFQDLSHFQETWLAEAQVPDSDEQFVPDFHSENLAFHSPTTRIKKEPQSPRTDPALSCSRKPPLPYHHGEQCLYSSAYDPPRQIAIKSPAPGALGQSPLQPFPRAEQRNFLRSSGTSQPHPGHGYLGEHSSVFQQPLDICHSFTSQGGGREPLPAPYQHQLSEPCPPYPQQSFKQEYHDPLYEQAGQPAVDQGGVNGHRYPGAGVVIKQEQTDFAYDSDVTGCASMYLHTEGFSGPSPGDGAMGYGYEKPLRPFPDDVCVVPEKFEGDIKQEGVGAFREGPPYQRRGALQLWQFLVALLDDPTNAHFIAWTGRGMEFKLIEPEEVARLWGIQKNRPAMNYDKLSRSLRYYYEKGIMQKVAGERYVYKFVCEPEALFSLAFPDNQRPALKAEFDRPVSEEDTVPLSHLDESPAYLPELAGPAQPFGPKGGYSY
Description: DAPPL (digital affinity profiling via proximity ligation, sequencing). Conditions: 10 mM Tris-HCl pH 7.5, 50 mM NaCl, 1 mM DTT, 4% glycerol, room temperature, 30 min; GST-TFs on glutathione beads, 16-mer random dsDNA library, 0.1% …; high values mean tight binding; double strand, one strand shown; scale: fold enrichment (6-mer frequency, TF over GST control).

The target of another assay is ETV1 (UniProt P50549). The assay is described as above. Conditions: 10 mM Tris-HCl pH 7.5, 50 mM NaCl, 1 mM DTT, 4% glycerol, room temperature, 30 min; GST-TFs on glutathione beads, 16-mer random dsDNA library, 0.1% …; high values mean tight binding; double strand, one strand shown; scale: fold enrichment (6-mer frequency, TF over GST control).

Regarding GAACTT, the results for the binding signal with ETV4 and with ETV1 were 1.57 and 1.68, respectively.

As for TGACCG, the binding signal with ETV4 worked out at 1.46; in the assay with ETV1, 1.56.

As to ACGTCC, the binding signal stood at 1.59 with ETV4 and 1.63 with ETV1.

Turning to TGCCAT, the binding signal with ETV4 was 1.08; with ETV1 it was 1.17.

For TAACAG, the binding signal in the assay with ETV4 came to 1.05; with ETV1, 1.09.

With AAAGCA, the binding signal with ETV4 turned out to be 1.05; in the assay with ETV1, 1.06.

Take ATTGTT: the binding signal with ETV4 and in the assay with ETV1 was 1.47 throughout.

Consider CTCTCT, for which the results for the binding signal with ETV4 and with ETV1 were 1.64 and 1.49, respectively.

Turning to CCTAAT, the results for the binding signal with ETV4 and with ETV1 were 1.32 and 1.38, respectively.

For GGTCTC, the binding signal in the assay with ETV4 was 2.54; with ETV1, 2.58.

On to CCATCT, for which the binding signal is 1.27 in the assay with ETV4 and 1.34 with ETV1.

ATCCTA: the binding signal with ETV4 came out at 1.35; in the assay with ETV1, 1.32.

As to AGTTTC, the results for the binding signal with ETV4 and with ETV1 were 1.18 and 1.29, respectively.

As for AACTTT, the binding signal in the assay with ETV4 and with ETV1 was 1.23 in each case.

For TCAATC, the binding signal with ETV4 was found to be 1.05; with ETV1 it was 1.04.

As to CTACGC, the binding signal with ETV4 and with ETV1 was 1.55 each time.

As to ACGTAT, the binding signal in the assay with ETV4 turned out to be 1.16; with ETV1 it was 1.32.

For AATGGT, the binding signal came out at 1.37 in the assay with ETV4 and 1.43 in the assay with ETV1.

For the sequence GTCCTC, the results for the binding signal with ETV4 and with ETV1 were 1.28 and 1.25, respectively.

As to TGGCAT, the binding signal with ETV4 is 1.13; in the assay with ETV1 it was 1.18.

Regarding TTCGCA, the binding signal amounted to 1.36 with ETV4 and 1.32 with ETV1.

As for TCCGGG, the figures for the binding signal with ETV4 and with ETV1 were 1.41 and 1.59, respectively.

Take ATTTTC: the binding signal amounted to 1.37 in the assay with ETV4 and 1.4 with ETV1.

TTCTGG: the figures for the binding signal with ETV4 and with ETV1 were 1.25 and 1.21, respectively.

Take ACTCGT: the binding signal with ETV4 was determined as 1.19; in the assay with ETV1 it was 1.13.

On to CAGCTA, for which the binding signal with ETV4 was 1.05; with ETV1 it was 0.967.

GCCCAA: the binding signal with ETV4 is 1.12; in the assay with ETV1, 0.982.

With TGGCAC, the binding signal with ETV4 turned out to be 1.2; with ETV1, 1.11.

For GGTGTT, the binding signal in the assay with ETV4 came to 1.08; in the assay with ETV1, 1.04.

As to TATTTT, the binding signal in the assay with ETV4 is 1.26; with ETV1, 1.48.

Regarding CATGGG, the binding signal with ETV4 was 1.02; with ETV1, 0.952.

For CAAATC, the binding signal was determined as 1.16 with ETV4 and 1.15 with ETV1.

Take CACCTG: the binding signal with ETV4 was determined as 1.08; with ETV1, 0.947.

Take CAACTT: the binding signal was 1.61 with ETV4 and 1.54 with ETV1.

Consider GAAAAT, for which the results for the binding signal in the assay with ETV4 and with ETV1 were 1.05 and 1.02, respectively.

On to GACTTT, for which the binding signal with ETV4 came out at 1.17; with ETV1, 1.24.

With CTCGCT, the binding signal came out at 1.76 with ETV4 and 1.71 with ETV1.

Take CCTAAG: the binding signal is 1.13 with ETV4 and 1.09 with ETV1.

For ACTCAA, the binding signal with ETV4 and in the assay with ETV1 was 1.15 each time.

In the case of GTTACA, the binding signal was found to be 1.15 in the assay with ETV4 and 1.11 with ETV1.

CTCGGT: the binding signal in the assay with ETV4 and in the assay with ETV1 was 1.15 in each case.

These data come from PMC7862700.
